Test results published in patent US20220169677A1 (INSERM INSTITUT NATIONAL DE LA SANTE ET DE LA RECHERCHE …, published 2022).
These are yes or no findings as the source states them, for the method shown. Some results given as binding are weak or reduced against the parent protein; the word gives no strength.

Molecular target: T1, recombinant human NRP-1 (human, UniProt O14786-2 22-644, limits assumed)
T1 construct: Coated on a 96-well plate at 200 ng/well; GenBank AAC51759.1 is printed only as the preferred definition of NRP-1; also called Neuropilin-1
T1 sequence (looked up): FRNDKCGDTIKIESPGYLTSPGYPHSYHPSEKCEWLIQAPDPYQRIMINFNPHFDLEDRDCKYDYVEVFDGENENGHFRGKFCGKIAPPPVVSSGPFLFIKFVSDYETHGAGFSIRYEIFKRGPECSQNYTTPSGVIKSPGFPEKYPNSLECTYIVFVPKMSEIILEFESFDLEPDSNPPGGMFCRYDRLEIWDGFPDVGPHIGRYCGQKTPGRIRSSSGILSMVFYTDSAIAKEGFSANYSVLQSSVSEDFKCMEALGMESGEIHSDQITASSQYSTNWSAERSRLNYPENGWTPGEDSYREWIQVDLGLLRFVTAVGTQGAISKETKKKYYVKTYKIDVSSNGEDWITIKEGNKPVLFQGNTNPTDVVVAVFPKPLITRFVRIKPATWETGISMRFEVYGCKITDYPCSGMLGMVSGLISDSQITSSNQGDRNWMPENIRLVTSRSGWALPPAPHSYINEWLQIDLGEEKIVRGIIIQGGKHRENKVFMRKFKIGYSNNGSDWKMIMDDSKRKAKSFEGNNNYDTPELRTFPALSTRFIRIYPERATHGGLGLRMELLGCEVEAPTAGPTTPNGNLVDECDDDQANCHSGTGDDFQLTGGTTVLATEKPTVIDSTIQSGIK
Test: chemiluminescence competition assay on coated NRP-1

Row | Binder | binding
1 | H-CKPRR-OH (KPRR (peptide derived from the VEGF-A165 C-terminus) with an added N-terminal Cys; also called CKPRR) [H2N-Cys-Lys-Pro-Arg-Arg-OH] | binds
2 | H-CLPPR-OH (LPPR (active part of A7R) with an added N-terminal Cys; also called CLPPR) [H2N-Cys-Leu-Pro-Pro-Arg-OH] | binds
3 | H-CTKPR-OH (TKPR (tuftsin) with an added N-terminal Cys; also called CTKPR) [H2N-Cys-Thr-Lys-Pro-Arg-OH] | binds
